PubChem BioAssay AID2551 (National Center for Advancing Translational Sciences (NCATS), 2010)
The campaign covered roughly 310,000 compounds. About 17,000 (5.5%) were called active. The shares of active, inactive and inconclusive entries below differ from those in the screen. Calls follow the shape of the dose curve; as a rule, active = well fitted inhibition curve with a large enough effect; inconclusive = small, poorly fitted or top-dose-only effect, or effect the other way; inactive = no such curve, though single readings can be large or run the other way. Where the call is inconclusive, the potency comes from a doubtful curve fit.

Sequences of proteins named here, by UniProt entry; tags and fusion partners are left off. A change or cut given only in a name is not applied to a line headed by its entry.
UniProt P51450: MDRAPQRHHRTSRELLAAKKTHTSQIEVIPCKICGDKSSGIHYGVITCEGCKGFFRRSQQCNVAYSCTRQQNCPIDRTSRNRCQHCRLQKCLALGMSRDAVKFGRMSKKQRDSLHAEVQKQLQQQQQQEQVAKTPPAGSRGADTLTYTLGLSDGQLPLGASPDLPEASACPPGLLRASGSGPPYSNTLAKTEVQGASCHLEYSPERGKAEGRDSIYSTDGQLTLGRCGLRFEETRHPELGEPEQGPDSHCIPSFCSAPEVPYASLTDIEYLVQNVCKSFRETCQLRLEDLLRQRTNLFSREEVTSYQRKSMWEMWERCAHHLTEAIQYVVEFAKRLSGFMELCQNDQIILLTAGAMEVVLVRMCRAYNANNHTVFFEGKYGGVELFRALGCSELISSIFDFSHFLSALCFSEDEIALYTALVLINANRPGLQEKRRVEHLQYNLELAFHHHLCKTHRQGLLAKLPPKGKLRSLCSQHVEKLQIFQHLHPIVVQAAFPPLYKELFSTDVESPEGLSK

molecular target: Nuclear receptor ROR-gamma (Mus musculus) (UniProt P51450); assay: qHTS for inhibitors of ROR gamma transcriptional activity; conditions: Drosophila S2 Gal4-RORgamma UAS-luciferase reporter, 20 h; activity change, negative = inhibition: at 53.6 µM (top of the series); also: nearly all actives have a fitted effect of over 60% in size
Procedure, shortened: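 Luciferase reporter read in Schneider cells carrying Gal4-RORγ (mouse) and UAS-Photinus luciferase; cells given compound 1 h before 700 uM copper sulfate induction, then incubated 20 h at ambient temperature.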
% is scaled to controls: 0 for no effect and ±100 for the full control effect; potency is read from the fitted curve at half-maximal effect.

SMILES	Potency	activity change, negative = inhibition
COCCN1C2=C(COC(C)(C)C2)C(=S)NC1c1ccccc1 (stereo not drawn)	inconclusive: 11.2 µM [inhibitor, partial curve]	
CCc1nnc(NC(=O)C(c2ccccc2)c2ccccc2)s1	inconclusive: 8.91 µM [inhibitor, partial curve]	
COC(=O)C(=C/C(C)=C/c1cccnc1)C(=O)OC	inconclusive: 15.8 µM [inhibitor, single point]	
CC(C)S(=O)(=O)c1csc(NC(=O)Nc2cccc([N+](=O)[O-])c2)c1Cl	inconclusive: 3.16 µM [activator, single point]	
CN1C(=O)NC(c2ccc(O)cc2)C2=C1CN(c1cccc3ccccc13)C2=O (stereo not drawn)		inactive: 33.2%
C/C(=N\Nc1ccc(Cl)c(C(=O)O)c1)c1ccccn1	inconclusive: 11.2 µM [activator, single point]	
COc1ccc(OC)c(-n2c(C)cc(/C=C3\C(=N)N4N=C(CC(=O)N5CCOCC5)SC4=NC3=O)c2C)c1	inconclusive: 15.8 µM [activator, partial curve]	
CCOc1cc(C(=O)Nc2cc(C)ccn2)cc(OCC)c1OCC	active: 15.8 µM	
O=C(NC1CCCCC1)c1ccccc1NC(=S)NC(=O)C1CCC1	inconclusive: 22.4 µM [inhibitor, single point]	
COc1ccc2c(c1)c(CC(=O)Nc1ccccc1OC)c(C)n2C(=O)c1ccc(Cl)cc1		inactive: 25.2%
COC(=O)COc1ccc(S(=O)(=O)NCc2cccnc2)cc1C		inactive: -8.61%
c1ccc(-c2nc3ccccc3s2)nc1	inconclusive: 20 µM [inhibitor, single point]	
O=S(=O)(c1cccc(NC(=S)N2CCN(c3ccccc3F)CC2)c1)C(F)F	inconclusive: 12.6 µM [inhibitor, single point]	
COc1cc(/C=N/Nc2nc3ccccc3[nH]c2=O)ccc1O	inconclusive: 31.6 µM [activator, single point]	
O=C(Cc1ccc(Br)cc1)Nc1ccccc1Cl		inactive: -8.92%
CN(C(=O)c1nc(-c2ccccc2)n(-c2ccccc2)n1)C1CCS(=O)(=O)C1 (stereo not drawn)	inconclusive: 17.8 µM [activator, single point]	
COc1cccc(C(=O)OCC(=O)NC(C)CCc2ccccc2)c1O (stereo not drawn)		inactive: 8.06%
COc1ccc(-c2cnnc(N/N=C/c3c(C)nn(-c4ccccc4)c3Cl)n2)cc1		inactive: 9.62%
CC(C)(C)c1ccc(-n2ncc3c2CCCC3NC(=O)c2csnn2)cc1 (stereo not drawn)		inactive: 65.4%
COc1ccc(OC)c(C2C(C(=O)c3ccco3)=C(O)C(=O)N2Cc2cccnc2)c1 (stereo not drawn)	inconclusive: 2 µM [inhibitor, partial curve]	
Cc1ccc(NS(=O)(=O)c2ccc(NC(=O)c3cccs3)cc2)c(C)c1	inconclusive: 12.6 µM [activator, partial curve]	
Cc1ccc(C(=O)NC2CCCCC2)cc1S(=O)(=O)N1CCCC1	inconclusive: 7.08 µM [activator, partial curve]	
CCCOc1ccc(/C=C/C(=O)Nc2ccc([N+](=O)[O-])cc2)cc1	inconclusive: 12.6 µM [activator, single point]	
CCCCc1c(C)nn(-c2nnc3c4ccccc4n(C)c3n2)c1C	active: 0.794 µM	
CCN(CC)c1ccc(/C=N\NC(N)=O)cc1	inconclusive: 10 µM [activator, partial curve]	

In the list so far, 5 have a Cl atom:
SMILES	Potency	activity change, negative = inhibition
CC(C)S(=O)(=O)c1csc(NC(=O)Nc2cccc([N+](=O)[O-])c2)c1Cl	inconclusive: 3.16 µM [activator, single point]	
C/C(=N\Nc1ccc(Cl)c(C(=O)O)c1)c1ccccn1	inconclusive: 11.2 µM [activator, single point]	
COc1ccc2c(c1)c(CC(=O)Nc1ccccc1OC)c(C)n2C(=O)c1ccc(Cl)cc1		inactive: 25.2%
O=C(Cc1ccc(Br)cc1)Nc1ccccc1Cl		inactive: -8.92%
COc1ccc(-c2cnnc(N/N=C/c3c(C)nn(-c4ccccc4)c3Cl)n2)cc1		inactive: 9.62%

Next part

SMILES	Potency	activity change, negative = inhibition
O=C(Nc1ccc(Cl)cc1)Nc1csc([N+](=O)[O-])c1	inconclusive: 31.6 µM [inhibitor, single point]	
Cc1occc1C(=O)NNC(=O)c1ccc(Br)o1		inactive: 7.79%
COc1ccc(C(=O)NCCc2c[nH]c3ccccc23)cc1		inactive: 1.64%
Cc1cc(Cl)c(S(=O)(=O)N2CCCC2)cc1OCC(=O)NC1CCCCC1	inconclusive: 15.8 µM [inhibitor, single point]	
O=S(=O)(c1ccc(F)cc1)c1nc(-c2ccccc2F)oc1N1CCCCC1	inconclusive: 28.2 µM [activator, single point]	
CC12COC3(C(=O)Nc4ccccc4)CC1CCC32C (stereo not drawn)	inconclusive: 25.1 µM [inhibitor, single point]	
COc1ccc(/C=N/n2cnc3c([nH]c4ccc(F)cc43)c2=O)cc1CSc1ccccn1		inactive: -5.2%
Cn1nc(CC(=O)Nc2cccc3ncccc23)c2ccccc2c1=O		inactive: -11.5%
NC(=O)COC(=O)Cc1coc2cc3c(cc12)CCC3	inconclusive: 11.2 µM [inhibitor, single point]	
COc1cccc(NC(=O)c2cnn(-c3ccccc3)c2C)c1	inconclusive: 35.5 µM [inhibitor, single point]	
O=C(CSc1ncnc2ccccc12)c1ccco1	inconclusive: 20 µM [inhibitor, single point]	
Cc1ccccc1/C=N/n1c(COc2ccccc2)n[nH]c1=S	active: 4.47 µM	
COc1cccc2sc(N(CCCN(C)C)C(=O)c3ccc(S(=O)(=O)N4CCCc5ccccc54)cc3)nc12	inconclusive: 35.5 µM [inhibitor, single point]	
Cc1nnsc1S(=O)c1ccc(Cl)c(Cl)c1 (stereo not drawn)		inactive: -38.7%
COc1cccc(CNC(=O)CS(=O)(=O)Cc2nc(-c3ccc(C)cc3)oc2C)c1OC	inconclusive: 22.4 µM [inhibitor, single point]	
NC(=O)c1ccccc1NC(=O)Nc1cccc(Cl)c1	inconclusive: 2 µM [activator, partial curve]	
Cc1[nH]c2ccccc2c1C(=O)/C=C/c1ccccc1Cl		inactive: -34.9% [at 10 µM]
O=C1OC(c2ccc(Cl)cc2)=N/C1=C\C=C\c1ccco1	inconclusive: 12.6 µM [inhibitor, single point]	
O=C(CCCN1C(=O)/C(=C\c2ccccc2)SC1=S)Nc1ccc(O)cc1C(=O)O	inconclusive: 22.4 µM [inhibitor, single point]	
O=C(O)c1cccc(NC(CNS(=O)(=O)c2ccc(Cl)cc2)c2ccccc2)c1 (stereo not drawn)	inconclusive: 8.91 µM [activator, partial curve]	
COc1ccc2cc(C(=O)c3ccccc3)c(=O)oc2c1		inactive: 31.2%
COc1cc(NC(=S)NC(=O)c2cccs2)ccc1NC(=O)C(C)C	active: 12.6 µM	
CCOC(=O)c1c(C)[nH]c(C2=NNC(=Nc3ccc(OCC)cc3)SC2)c1C	inconclusive: 35.5 µM [inhibitor, single point]	
CC(C)OC(=O)c1cc2c(ccn2C)n1CC(=O)N(Cc1ccccc1)c1ccccc1	inconclusive: 20 µM [activator, partial curve]	
O=C(/C=C/c1ccc(I)cc1)c1ccc(B(O)O)cc1	inconclusive: 14.1 µM [inhibitor, single point]	

SMILES	Potency	activity change, negative = inhibition
Cc1cccc(C)c1NC(=O)c1nc(S(=O)(=O)Cc2ccccc2)ncc1Cl	active: 10 µM	
CCOC(=O)C1=C(c2ccccc2)N=C2SCC(=O)N2C1c1ccc2c(c1)OCO2 (stereo not drawn)		inactive: -8.66%
c1ccc(-c2oc3ncnc(NCCCn4ccnc4)c3c2-c2ccccc2)cc1	active: 22.4 µM	
COc1ccc(C2CC(c3ccc(C)o3)=NN2C(C)=O)cc1 (stereo not drawn)		inactive: -18.4%
O=C(C1CCN(Cc2ccc(Cl)cc2)CC1)N1CCN(C(c2ccccc2)c2ccccc2)CC1	inconclusive: 0.282 µM [inhibitor, full curve, poor fit]	
O=C(O)c1cccc(NC(=S)NC(=O)c2cccc(OCc3ccccc3)c2)c1		inactive: -5.92%
O=c1c(-c2cccc(F)c2)nc2cncnc2n1Cc1ccc(F)cc1	inconclusive: 12.6 µM [activator, single point]	
O=C(COc1ccccc1)NNc1nc2c(F)cc(F)cc2s1	active: 12.6 µM	
S=c1[nH]nc(COc2ccc(Cl)cc2)o1	active: 6.31 µM	
COc1ccc(C(=O)ON=C2CCN(C)CC2)cc1	inconclusive: 0.251 µM [activator, partial curve]	
COc1ccc(S(=O)(=O)N2Cc3ccccc3CC2C(=O)Nc2nccs2)cc1 (stereo not drawn)		inactive: -40.3%
COc1cccc(C(=O)N2N=C(c3ccccn3)CC2(O)C(F)(F)F)c1 (stereo not drawn)	active: 2 µM	
Cc1c(Cl)c(-c2n[nH]c(=S)n2Cc2ccco2)nn1C	active: 11.2 µM	
O=C(N/N=C/c1cc(Cl)ccc1O)C(=O)Nc1ccccc1OC(F)(F)C(F)F	active: 0.891 µM	
CCCOc1ccc(C(=O)N2CCCc3ccccc32)cc1		inactive: 14.9%
O=[N+]([O-])c1cc([N+](=O)[O-])c2oc(-c3ccccc3)c(Br)c2c1O	inconclusive: 11.2 µM [activator, single point]	
Cc1ccc(-c2nc3ccc([N+](=O)[O-])cc3[nH]2)cc1	inconclusive: 11.2 µM [inhibitor, single point]	
CCOC(=O)N1CCC(NC(=O)c2cc(C(=O)Nc3cccc(C(F)(F)F)c3)ccc2CO)CC1	inconclusive: 10 µM [activator, partial curve, poor fit]	
CCOc1nc(C)cc(C)c1S(=O)(=O)c1cccc(Cl)c1		inactive: 1.9%
O=C1CCCc2nc3c(cc21)C(O)Oc1c-3ccc2ccccc12 (stereo not drawn)	inconclusive: 1.26 µM [activator, full curve, poor fit]	
CCOc1ccc(C2=C(C=C(C#N)C#N)C(c3ccccc3)c3ccccc3O2)cc1 (stereo not drawn)	inconclusive: 11.2 µM [activator, partial curve]	
Cc1nn(C)cc1/C=C/C(=O)c1ccccc1	inconclusive: 35.5 µM [inhibitor, single point]	
CCCC(CCC)c1nnc(NC(=O)c2ccco2)s1	inconclusive: 3.98 µM [inhibitor, full curve, poor fit]	
